# Source: the supplement of paper PMC8728848
# The other results are listed elsewhere or left out.
# Tests used:
# Experiment in all cases: glycan array binding signal (z-score within array); higher = stronger binding
# Details in all cases: glycan notation: IUPAC condensed, linker removed
# [1] = target: Fuc(a1-2)[Gal(a1-3)]Gal(b1-4)GlcNAc(b1-2)Man(a1-3)[Fuc(a1-2)[Gal(a1-3)]Gal(b1-4)GlcNAc(b1-2)Man(a1-6)]Man(b1-4)GlcNAc(b1-4)[Fuc(a1-6)]GlcNAc
# In short: (§1)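 Glycan array data came from 3228 arrays in the Consortium for Functional Glycomics database, and only arrays with an available protein sequence were kept. Glycan names were put into IUPAC-condensed notation, and columns mapping to the same glycan were averaged. The binding signal is a within-array Z-score, averaged across arrays of one protein sequence run at different concentrations or buffers and across linkers. A negative Z-score can be read as non-binding.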
# [2] = target: Fuc(a1-2)[Gal(a1-3)]Gal(b1-4)GlcNAc(b1-3)GalNAc
# In short: as §1
# [3] = target: Fuc(a1-2)[Gal(a1-3)]Gal(b1-4)GlcNAc(b1-3)[Fuc(a1-2)[Gal(a1-3)]Gal(b1-4)GlcNAc(b1-6)]GalNAc
# In short: as §1
# [4] = target: Fuc(a1-2)[Gal(a1-3)]Gal(b1-4)GlcNAc(b1-6)GalNAc
# In short: as §1
# [5] = target: Fuc(a1-2)[Gal(a1-3)]Gal(b1-4)[Fuc(a1-3)]Glc
# In short: as §1
# [6] = target: Fuc(a1-2)[Gal(a1-3)]Gal(b1-4)[Fuc(a1-3)]GlcNAc
# In short: as §1
# [7] = target: Fuc(a1-2)[Gal(a1-3)]Gal(b1-4)[Fuc(a1-3)]GlcNAc(b1-3)GalNAc
# In short: as §1
# [8] = target: Fuc(a1-2)[Gal(a1-4)]Gal(b1-4)GlcNAc
# In short: as §1
# [9] = target: Fuc(a1-2)[GalNAc(a1-3)]Gal
# In short: as §1
# [10] = target: Fuc(a1-2)[GalNAc(a1-3)]Gal(b1-3)GalNAc(a1-3)[Fuc(a1-2)]Gal(b1-4)GlcNAc
# In short: as §1
# [11] = target: Fuc(a1-2)[GalNAc(a1-3)]Gal(b1-3)GalNAc(b1-3)Gal(a1-4)Gal(b1-4)Glc
# In short: as §1
# [12] = target: Fuc(a1-2)[GalNAc(a1-3)]Gal(b1-3)GlcNAc
# In short: as §1
# [13] = target: Fuc(a1-2)[GalNAc(a1-3)]Gal(b1-3)GlcNAc(b1-2)Man(a1-3)[Fuc(a1-2)[GalNAc(a1-3)]Gal(b1-3)GlcNAc(b1-2)Man(a1-6)]Man(b1-4)GlcNAc(b1-4)GlcNAc
# In short: as §1
# [14] = target: Fuc(a1-2)[GalNAc(a1-3)]Gal(b1-3)GlcNAc(b1-2)Man(a1-3)[Fuc(a1-2)[GalNAc(a1-3)]Gal(b1-3)GlcNAc(b1-2)Man(a1-6)]Man(b1-4)GlcNAc(b1-4)[Fuc(a1-6)]GlcNAc
# In short: as §1
# [15] = target: Fuc(a1-2)[GalNAc(a1-3)]Gal(b1-3)GlcNAc(b1-3)GalNAc
# In short: as §1
# [16] = target: Fuc(a1-2)[GalNAc(a1-3)]Gal(b1-3)GlcNAc(b1-6)GalNAc
# In short: as §1
# [17] = target: Fuc(a1-2)[GalNAc(a1-3)]Gal(b1-4)Glc
# In short: as §1
# [18] = target: Fuc(a1-2)[GalNAc(a1-3)]Gal(b1-4)GlcNAc
# In short: as §1
# [19] = target: Fuc(a1-2)[GalNAc(a1-3)]Gal(b1-4)GlcNAc(b1-2)Man
# In short: as §1
# [20] = target: Fuc(a1-2)[GalNAc(a1-3)]Gal(b1-4)GlcNAc(b1-2)Man(a1-3)[Fuc(a1-2)[GalNAc(a1-3)]Gal(b1-4)GlcNAc(b1-2)Man(a1-6)]Man(b1-4)GlcNAc(b1-4)GlcNAc
# In short: as §1
# [21] = target: Fuc(a1-2)[GalNAc(a1-3)]Gal(b1-4)GlcNAc(b1-2)Man(a1-3)[Fuc(a1-2)[GalNAc(a1-3)]Gal(b1-4)GlcNAc(b1-2)Man(a1-6)]Man(b1-4)GlcNAc(b1-4)[Fuc(a1-6)]GlcNAc
# In short: as §1
# [22] = target: Fuc(a1-2)[GalNAc(a1-3)]Gal(b1-4)GlcNAc(b1-3)Gal(b1-4)GlcNAc
# In short: as §1
# [23] = target: Fuc(a1-2)[GalNAc(a1-3)]Gal(b1-4)GlcNAc(b1-3)Gal(b1-4)GlcNAc(b1-3)Gal(b1-4)GlcNAc
# In short: as §1
# [24] = target: Fuc(a1-2)[GalNAc(a1-3)]Gal(b1-4)GlcNAc(b1-3)GalNAc
# In short: as §1
# [25] = target: Fuc(a1-2)[GalNAc(a1-3)]Gal(b1-4)GlcNAc(b1-3)[Fuc(a1-2)[GalNAc(a1-3)]Gal(b1-4)GlcNAc(b1-6)]GalNAc
# In short: as §1
# [26] = target: Fuc(a1-2)[GalNAc(a1-3)]Gal(b1-4)GlcNAc(b1-6)GalNAc
# In short: as §1
# [27] = target: Fuc(a1-2)[GalNAc(a1-3)]Gal(b1-4)[Fuc(a1-3)]GlcNAc
# In short: as §1
# [28] = target: Fuc(a1-2)[GalNAc(a1-3)]Gal(b1-4)[Fuc(a1-3)]GlcNAc(b1-3)GalNAc
# In short: as §1
# [29] = target: Fuc(a1-2)[GalNAc(a1-4)]Gal(b1-4)GlcNAc
# In short: as §1
# [30] = target: Fuc(a1-2)[GalNAc(b1-3)]Gal
# In short: as §1
binder,measurement,setting,value
Aap brpt (Staphylococcus epidermidis) (protein) VDGDPITSTEEIPFDKKREFDPNLAPGTEKVVQKGEPGTKTITTPTTKNPLTGEKVGEGEPTEKITKQPVDEIVHYGGEEIKTGHKDEFDPNAPKGSQTTQPGKPGVKNPDTGEVVTPPVDDVTKYGPVDGDPITSTEEIPFDKKREFDPNLAPGTEKVVQKGEPGTKTITTPTTKNPLTGEKVGEGEPTEKITKQPVDEIVHYGGEEIKPGHKDEFDPNAPKGSQEDVPGKPGVKNPDTGEVVTPPVDDVTKYGPVDGDSITSTEEIPFDKKREFDPNLAPGTEKVVQKGEPGTKTITTPTTKNPLTGEKVGEGEPTEKITKQPVDEIVHYGGEQIPQGHKDEFDPNAPVDSKTEVPGKPGVKNPDTGEVVTPPVDDVTKYGPVDGDSITSTEEIPFDKKREFDPNLAPGTEKVVQKGEPGTKTITTPTTKNPLTGEKVGEGKSTEKVTKQPVDEIVEYGPTK,glycan array binding signal (z-score),[1],-1.31
same,glycan array binding signal (z-score),[2],0.749
same,glycan array binding signal (z-score),[3],0.447
same,glycan array binding signal (z-score),[4],0.142
same,glycan array binding signal (z-score),[5],-0.313
same,glycan array binding signal (z-score),[6],-0.457
same,glycan array binding signal (z-score),[7],-1.01
same,glycan array binding signal (z-score),[8],-0.889
same,glycan array binding signal (z-score),[9],0.623
same,glycan array binding signal (z-score),[10],-1.01
same,glycan array binding signal (z-score),[11],-0.753
same,glycan array binding signal (z-score),[12],-0.813
same,glycan array binding signal (z-score),[13],-0.132
same,glycan array binding signal (z-score),[14],0.816
same,glycan array binding signal (z-score),[15],0.236
same,glycan array binding signal (z-score),[16],0.06
same,glycan array binding signal (z-score),[17],0.427
same,glycan array binding signal (z-score),[18],-0.292
same,glycan array binding signal (z-score),[19],-1.22
same,glycan array binding signal (z-score),[20],-0.89
same,glycan array binding signal (z-score),[21],0.323
same,glycan array binding signal (z-score),[22],-0.155
same,glycan array binding signal (z-score),[23],-0.361
same,glycan array binding signal (z-score),[24],-2.27
same,glycan array binding signal (z-score),[25],0.032
same,glycan array binding signal (z-score),[26],1.65
same,glycan array binding signal (z-score),[27],0.27
same,glycan array binding signal (z-score),[28],0.861
same,glycan array binding signal (z-score),[29],0.881
same,glycan array binding signal (z-score),[30],-1.97

# Some of the entries above, reformatted:
binder	measurement	setting	value
Aap brpt (Staphylococcus epidermidis) (protein) VDGDPITSTEEIPFDKKREFDPNLAPGTEKVVQKGEPGTKTITTPTTKNPLTGEKVGEGEPTEKITKQPVDEIVHYGGEEIKTGHKDEFDPNAPKGSQTTQPGKPGVKNPDTGEVVTPPVDDVTKYGPVDGDPITSTEEIPFDKKREFDPNLAPGTEKVVQKGEPGTKTITTPTTKNPLTGEKVGEGEPTEKITKQPVDEIVHYGGEEIKPGHKDEFDPNAPKGSQEDVPGKPGVKNPDTGEVVTPPVDDVTKYGPVDGDSITSTEEIPFDKKREFDPNLAPGTEKVVQKGEPGTKTITTPTTKNPLTGEKVGEGEPTEKITKQPVDEIVHYGGEQIPQGHKDEFDPNAPVDSKTEVPGKPGVKNPDTGEVVTPPVDDVTKYGPVDGDSITSTEEIPFDKKREFDPNLAPGTEKVVQKGEPGTKTITTPTTKNPLTGEKVGEGKSTEKVTKQPVDEIVEYGPTK	glycan array binding signal (z-score)	[19]	-1.22
same	glycan array binding signal (z-score)	[25]	0.032
